In publication PMC6862315:
These are yes or no findings as the source states them, for the method shown. Binding can be weak; no strength is given. Tags and fused reporters may be left off the sequences shown.

Target: bHLH35, full length in the bait vector pGBKT7 (BD) (Phalaenopsis aphrodite)
Test: two-hybrid; Matchmaker GAL4 yeast two-hybrid; SPK1 as prey in pGADT7 (AD), bHLH35 as bait in pGBKT7 (BD); growth on medium lacking Leu, Trp and His with 3-amino-1,2,4 triazole and X-Gal

B1: Spike Activator 1 (SPK1), full length in the prey vector pGADT7 (AD) (protein, UniProt A0A5Q0QTC1 1-304)
chain: MALEAVVFHDLLSCNVKDMYSPWDIAGLVDEDKTLPFYDEWKASCSSLTGQGFQEPPDLGGATAISATAQKENKAPATCSESNGRKKRRRTKGLTNQEEAENQRMTHIAVERNRRKQMNEYLAVLRSLMPASYAQRGDQASIVGGAINYVKELQQIVQFLEVRKQLKHRGDNRVQDLKPLASFFSFPQYSLTDTAAAAAGGVDTVPANPSAVADIEVTIVESHASLKILCRRRPKQLLKLVVGLQSLRLSTLHLNATSFGAMVLFTFSLKVEEDCQLATVDEIATAVHQIVVRIHEEEGFYTSS
- binding: binds
